# In the supplement of paper PMC11732987, “Enantioselective OTUD7B fragment discovery through chemoproteomics screening and high-throughput optimisation” (Communications Chemistry, 2025):
# The chains behind the UniProt entries cited, without tags or fusion partners. Where a name states a change or a piece, a line headed by the entry shows the natural chain unless it says otherwise.
# UniProt Q9NP50: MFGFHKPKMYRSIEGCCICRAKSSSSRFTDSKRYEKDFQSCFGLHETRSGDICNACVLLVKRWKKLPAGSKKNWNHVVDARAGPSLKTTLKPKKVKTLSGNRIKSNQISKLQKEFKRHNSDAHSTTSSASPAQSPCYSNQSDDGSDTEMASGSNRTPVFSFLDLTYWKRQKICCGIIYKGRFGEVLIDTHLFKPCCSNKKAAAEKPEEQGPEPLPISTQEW
# UniProt Q9UHR5: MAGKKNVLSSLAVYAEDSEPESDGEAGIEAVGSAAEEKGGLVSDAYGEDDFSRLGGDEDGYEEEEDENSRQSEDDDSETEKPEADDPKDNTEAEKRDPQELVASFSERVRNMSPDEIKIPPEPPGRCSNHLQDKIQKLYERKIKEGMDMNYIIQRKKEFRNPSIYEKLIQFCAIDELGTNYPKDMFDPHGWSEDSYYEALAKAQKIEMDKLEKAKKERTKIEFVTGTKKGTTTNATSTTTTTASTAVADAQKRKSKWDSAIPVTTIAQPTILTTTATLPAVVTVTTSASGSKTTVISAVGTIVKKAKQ
# UniProt Q96HI0: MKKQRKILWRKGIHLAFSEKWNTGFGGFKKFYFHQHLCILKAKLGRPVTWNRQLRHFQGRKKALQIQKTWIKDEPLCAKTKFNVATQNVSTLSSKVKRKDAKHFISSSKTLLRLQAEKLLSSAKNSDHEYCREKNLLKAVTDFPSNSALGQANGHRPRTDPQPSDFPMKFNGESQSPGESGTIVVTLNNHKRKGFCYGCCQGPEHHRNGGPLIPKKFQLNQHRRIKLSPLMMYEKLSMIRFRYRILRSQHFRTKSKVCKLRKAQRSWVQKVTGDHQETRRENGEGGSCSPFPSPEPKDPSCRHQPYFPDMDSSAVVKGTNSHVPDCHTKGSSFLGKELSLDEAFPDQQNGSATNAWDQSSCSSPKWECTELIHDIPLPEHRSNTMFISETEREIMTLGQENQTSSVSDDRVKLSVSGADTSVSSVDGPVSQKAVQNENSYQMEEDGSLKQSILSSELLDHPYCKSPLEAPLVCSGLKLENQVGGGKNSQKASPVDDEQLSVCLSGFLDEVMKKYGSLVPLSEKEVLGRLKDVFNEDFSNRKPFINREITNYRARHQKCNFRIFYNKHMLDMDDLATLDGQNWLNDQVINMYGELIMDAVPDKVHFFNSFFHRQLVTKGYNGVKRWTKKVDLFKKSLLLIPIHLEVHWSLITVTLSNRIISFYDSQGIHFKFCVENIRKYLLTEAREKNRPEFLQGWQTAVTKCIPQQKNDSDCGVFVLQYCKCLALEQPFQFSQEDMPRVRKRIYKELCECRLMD
# UniProt Q7Z333: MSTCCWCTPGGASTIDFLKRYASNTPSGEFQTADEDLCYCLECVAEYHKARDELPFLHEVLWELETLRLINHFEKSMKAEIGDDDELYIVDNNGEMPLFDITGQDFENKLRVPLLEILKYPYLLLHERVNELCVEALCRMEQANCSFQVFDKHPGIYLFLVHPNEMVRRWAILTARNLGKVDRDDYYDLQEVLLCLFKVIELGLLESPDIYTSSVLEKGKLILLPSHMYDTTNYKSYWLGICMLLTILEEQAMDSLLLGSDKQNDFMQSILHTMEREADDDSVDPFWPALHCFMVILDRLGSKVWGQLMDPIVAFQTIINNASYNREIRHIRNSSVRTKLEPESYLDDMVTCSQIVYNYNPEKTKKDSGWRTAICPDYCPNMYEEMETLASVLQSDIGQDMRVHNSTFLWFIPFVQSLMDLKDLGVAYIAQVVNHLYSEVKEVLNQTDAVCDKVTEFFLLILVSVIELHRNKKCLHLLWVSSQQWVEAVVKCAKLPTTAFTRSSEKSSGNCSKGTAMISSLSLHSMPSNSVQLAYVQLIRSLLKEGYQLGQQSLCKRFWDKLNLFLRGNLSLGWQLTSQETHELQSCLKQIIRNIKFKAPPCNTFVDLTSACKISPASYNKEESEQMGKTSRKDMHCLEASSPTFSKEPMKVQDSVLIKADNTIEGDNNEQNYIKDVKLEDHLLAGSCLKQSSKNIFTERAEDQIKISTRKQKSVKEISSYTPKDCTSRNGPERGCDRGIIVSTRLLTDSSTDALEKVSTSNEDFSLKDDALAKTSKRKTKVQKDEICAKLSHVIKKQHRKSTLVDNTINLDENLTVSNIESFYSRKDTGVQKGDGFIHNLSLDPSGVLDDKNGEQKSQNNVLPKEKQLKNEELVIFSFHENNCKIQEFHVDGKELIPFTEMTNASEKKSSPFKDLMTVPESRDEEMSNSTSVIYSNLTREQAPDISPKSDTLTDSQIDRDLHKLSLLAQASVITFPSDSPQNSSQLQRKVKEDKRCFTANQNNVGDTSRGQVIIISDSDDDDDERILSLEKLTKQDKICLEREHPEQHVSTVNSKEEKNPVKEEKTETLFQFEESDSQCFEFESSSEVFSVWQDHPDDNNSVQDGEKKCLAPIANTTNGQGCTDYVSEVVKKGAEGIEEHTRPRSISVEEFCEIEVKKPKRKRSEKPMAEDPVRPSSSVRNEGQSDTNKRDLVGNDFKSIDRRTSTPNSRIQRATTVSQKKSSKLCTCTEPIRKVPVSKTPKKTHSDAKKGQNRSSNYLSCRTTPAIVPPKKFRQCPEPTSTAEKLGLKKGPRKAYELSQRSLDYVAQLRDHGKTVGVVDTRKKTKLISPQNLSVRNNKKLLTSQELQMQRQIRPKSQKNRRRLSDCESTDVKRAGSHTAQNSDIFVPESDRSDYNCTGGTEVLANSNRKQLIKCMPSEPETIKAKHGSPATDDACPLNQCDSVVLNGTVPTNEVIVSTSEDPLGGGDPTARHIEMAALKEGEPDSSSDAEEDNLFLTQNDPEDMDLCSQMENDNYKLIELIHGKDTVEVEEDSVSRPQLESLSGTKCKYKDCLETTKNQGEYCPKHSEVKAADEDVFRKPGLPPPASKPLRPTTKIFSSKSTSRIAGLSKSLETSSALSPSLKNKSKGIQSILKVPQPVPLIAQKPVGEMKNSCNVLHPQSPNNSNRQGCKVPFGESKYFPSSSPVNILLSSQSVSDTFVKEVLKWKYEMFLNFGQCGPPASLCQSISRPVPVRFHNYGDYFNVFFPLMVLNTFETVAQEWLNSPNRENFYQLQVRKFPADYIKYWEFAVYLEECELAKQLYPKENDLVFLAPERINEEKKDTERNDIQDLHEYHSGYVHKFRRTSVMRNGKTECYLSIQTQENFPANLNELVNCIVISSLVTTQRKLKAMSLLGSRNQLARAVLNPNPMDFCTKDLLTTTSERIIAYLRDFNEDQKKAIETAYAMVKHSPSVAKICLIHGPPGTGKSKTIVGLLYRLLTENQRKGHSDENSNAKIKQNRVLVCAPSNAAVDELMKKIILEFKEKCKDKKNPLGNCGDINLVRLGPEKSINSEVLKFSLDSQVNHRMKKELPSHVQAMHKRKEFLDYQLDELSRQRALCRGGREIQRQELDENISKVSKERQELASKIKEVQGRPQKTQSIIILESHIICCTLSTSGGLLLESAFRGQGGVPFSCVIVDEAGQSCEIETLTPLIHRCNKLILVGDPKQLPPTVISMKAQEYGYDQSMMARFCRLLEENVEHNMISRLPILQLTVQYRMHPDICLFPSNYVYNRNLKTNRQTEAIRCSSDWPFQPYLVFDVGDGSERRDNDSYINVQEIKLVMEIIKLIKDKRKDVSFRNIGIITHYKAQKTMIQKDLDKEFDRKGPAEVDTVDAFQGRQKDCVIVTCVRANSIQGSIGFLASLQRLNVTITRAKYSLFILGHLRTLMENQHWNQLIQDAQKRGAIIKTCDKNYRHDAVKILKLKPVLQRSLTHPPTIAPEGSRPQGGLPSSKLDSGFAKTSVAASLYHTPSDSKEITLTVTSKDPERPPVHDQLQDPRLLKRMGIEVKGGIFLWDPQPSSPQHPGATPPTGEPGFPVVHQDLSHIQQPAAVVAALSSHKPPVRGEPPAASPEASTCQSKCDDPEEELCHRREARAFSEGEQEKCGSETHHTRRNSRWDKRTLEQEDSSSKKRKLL
# UniProt Q7L8J4: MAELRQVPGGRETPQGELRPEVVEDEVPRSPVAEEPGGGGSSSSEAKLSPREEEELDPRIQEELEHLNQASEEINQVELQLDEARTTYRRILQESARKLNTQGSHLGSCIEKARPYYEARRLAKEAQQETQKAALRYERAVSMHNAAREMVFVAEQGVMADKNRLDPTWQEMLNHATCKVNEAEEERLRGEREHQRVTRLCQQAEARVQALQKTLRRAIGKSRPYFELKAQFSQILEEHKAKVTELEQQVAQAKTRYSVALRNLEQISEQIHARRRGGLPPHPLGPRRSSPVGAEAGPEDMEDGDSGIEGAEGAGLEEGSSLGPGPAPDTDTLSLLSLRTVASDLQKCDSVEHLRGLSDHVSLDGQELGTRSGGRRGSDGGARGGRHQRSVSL
# UniProt Q96HU1: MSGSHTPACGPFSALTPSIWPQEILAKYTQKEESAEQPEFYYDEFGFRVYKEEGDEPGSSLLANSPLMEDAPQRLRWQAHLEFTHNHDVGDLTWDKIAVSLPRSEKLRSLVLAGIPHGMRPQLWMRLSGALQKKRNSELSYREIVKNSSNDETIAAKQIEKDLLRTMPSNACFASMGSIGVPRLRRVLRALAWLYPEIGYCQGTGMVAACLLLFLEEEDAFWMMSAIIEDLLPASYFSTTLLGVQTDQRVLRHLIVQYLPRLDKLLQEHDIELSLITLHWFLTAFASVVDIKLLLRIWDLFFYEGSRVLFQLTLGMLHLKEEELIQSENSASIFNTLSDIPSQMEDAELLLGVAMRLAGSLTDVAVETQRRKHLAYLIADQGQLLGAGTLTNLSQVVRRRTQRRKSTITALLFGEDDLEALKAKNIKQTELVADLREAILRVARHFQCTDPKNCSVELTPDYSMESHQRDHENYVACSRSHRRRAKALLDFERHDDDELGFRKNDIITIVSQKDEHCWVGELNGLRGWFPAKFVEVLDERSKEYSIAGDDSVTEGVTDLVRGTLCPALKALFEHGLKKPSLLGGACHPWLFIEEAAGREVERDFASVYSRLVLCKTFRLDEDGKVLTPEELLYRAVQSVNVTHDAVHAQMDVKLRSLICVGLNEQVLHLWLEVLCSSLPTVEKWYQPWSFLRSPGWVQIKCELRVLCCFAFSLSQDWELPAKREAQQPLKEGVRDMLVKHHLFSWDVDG
# UniProt O94885: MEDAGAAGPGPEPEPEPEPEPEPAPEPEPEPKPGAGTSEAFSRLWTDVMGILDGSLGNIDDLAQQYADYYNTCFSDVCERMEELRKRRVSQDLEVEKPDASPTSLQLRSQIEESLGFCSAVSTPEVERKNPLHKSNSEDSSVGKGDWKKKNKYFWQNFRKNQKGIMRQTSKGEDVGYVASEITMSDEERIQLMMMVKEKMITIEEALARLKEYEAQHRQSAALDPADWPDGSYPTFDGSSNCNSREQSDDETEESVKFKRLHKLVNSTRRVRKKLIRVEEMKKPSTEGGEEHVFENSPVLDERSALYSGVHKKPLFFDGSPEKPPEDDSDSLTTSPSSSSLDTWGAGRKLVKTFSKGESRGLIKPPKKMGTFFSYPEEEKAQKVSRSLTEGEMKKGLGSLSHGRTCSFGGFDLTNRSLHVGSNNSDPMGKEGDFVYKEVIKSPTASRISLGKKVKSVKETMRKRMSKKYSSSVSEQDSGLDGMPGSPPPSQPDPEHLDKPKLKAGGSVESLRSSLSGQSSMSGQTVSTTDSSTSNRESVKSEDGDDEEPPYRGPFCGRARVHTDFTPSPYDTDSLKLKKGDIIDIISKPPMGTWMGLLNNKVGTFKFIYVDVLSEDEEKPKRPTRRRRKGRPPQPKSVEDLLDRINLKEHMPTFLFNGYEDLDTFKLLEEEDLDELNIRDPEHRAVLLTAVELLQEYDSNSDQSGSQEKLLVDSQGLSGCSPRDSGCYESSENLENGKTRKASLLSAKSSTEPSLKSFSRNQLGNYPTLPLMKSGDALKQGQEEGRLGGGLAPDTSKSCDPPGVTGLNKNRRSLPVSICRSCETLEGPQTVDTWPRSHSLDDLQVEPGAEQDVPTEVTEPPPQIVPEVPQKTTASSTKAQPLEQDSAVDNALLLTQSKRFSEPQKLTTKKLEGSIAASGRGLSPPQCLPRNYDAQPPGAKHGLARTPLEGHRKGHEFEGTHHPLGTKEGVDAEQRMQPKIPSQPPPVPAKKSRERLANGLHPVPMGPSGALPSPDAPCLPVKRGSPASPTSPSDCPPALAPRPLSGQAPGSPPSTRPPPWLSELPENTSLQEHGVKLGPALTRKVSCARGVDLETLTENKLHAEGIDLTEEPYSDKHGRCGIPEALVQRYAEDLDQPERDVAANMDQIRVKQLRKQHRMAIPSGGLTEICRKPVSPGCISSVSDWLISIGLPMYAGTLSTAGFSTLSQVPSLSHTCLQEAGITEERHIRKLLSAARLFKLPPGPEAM
# Some of the results follow. The data scatter; read single values as rough.
# Compound: ClCC(=O)N[C@H]1CCCc2ccccc12
# Assay: log2 mean competition ratio of IA-DTB cysteine labelling (DMSO/compound) (log2 ratio); higher = stronger cysteine engagement by compound
# Conditions: 50 µM; treatment time: 4 h; cell line lysate: HEK293T
# Description: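 IA-DTB competitive cysteine chemoproteomics in HEK293T RIPA lysate. Lysates were treated with compound 29 or 30 at 50 or 200 µM for 4 h, then IA-DTB (500 µM, 1 h), trypsin-digested, NeutrAvidin-enriched and analysed by diaPASEF. Competition ratio = intensity DMSO / intensity compound (n=4 treated, n=64 DMSO); binding: mean log2 CR ≥ 1 and p ≤ 0.05 plus QC filters. Target is the cysteine site.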
row,Target,log2 mean competition ratio
1,SESN1 C355 (UniProt Q9Y6P5),-0.269
2,SINHCAF C41 (UniProt Q9NP50),-0.0165
3,SIK3 C655,-0.18
4,SBNO1 C626 (UniProt A3KN83),0.0784
5,SF1 C279,0.0168
6,SAP30BP C127 (UniProt Q9UHR5),0.0703
7,SALL3 C603,0.331
8,SHPK C132 (UniProt Q9UHJ6),-0.201
9,SIK2 C426 (UniProt Q9H0K1),-0.205
10,SENP5 C473 (UniProt Q96HI0),-0.275
11,SEC31A C1130,-0.35
12,SETX C688 (UniProt Q7Z333),-0.349
13,SEPTIN5 C300,-0.601
14,SH3BP5L C201 (UniProt Q7L8J4),0.105
15,SGSM3 C448 (UniProt Q96HU1),-0.213
16,SASH1 C1120 (UniProt O94885),0.4
17,SETD5 C1050,0.134
18,SHMT2 C91,0.0445
19,SGSM3 C454 (UniProt Q96HU1),-0.0458

# Same assay, conditions: 200 µM; treatment time: 4 h; cell line lysate: HEK293T
row,Target,log2 mean competition ratio
1,SESN1 C355 (UniProt Q9Y6P5),-0.0551
2,SINHCAF C41 (UniProt Q9NP50),0.108
3,SIK3 C655,0.253
4,SBNO1 C626 (UniProt A3KN83),0.00275
5,SF1 C279,0.128
6,SAP30BP C127 (UniProt Q9UHR5),-0.0108
7,SALL3 C603,-0.182
8,SHPK C132 (UniProt Q9UHJ6),0.0679
9,SIK2 C426 (UniProt Q9H0K1),-0.093
10,SENP5 C473 (UniProt Q96HI0),0.186
11,SEC31A C1130,-0.191
12,SETX C688 (UniProt Q7Z333),-0.0229
13,SEPTIN5 C300,-0.415
14,SEL1L C539 (UniProt Q9UBV2),-0.0118
15,SH3BP5L C201 (UniProt Q7L8J4),-0.0202
16,SGSM3 C448 (UniProt Q96HU1),0.0203
17,SASH1 C1120 (UniProt O94885),0.183
18,SASH1 C799 (UniProt O94885),0.487
19,SETD5 C1050,0.00391
20,SHMT2 C91,0.000689
21,SGSM3 C454 (UniProt Q96HU1),0.0577
